Experimental data: PMC5928214, “Direct binding of CEP85 to STIL ensures robust PLK4 activation and efficient centriole assembly” (Nature Communications, 2018)
No constants are given. Whether binding was seen depends on the method and setting. Some entries that bind do so weakly or less than the wild type. Tags and fused reporters may be left off the sequences shown.

Target: T1, 3xFLAG-MAP7(17-282)-mCherry-CEP85 wild type (human) (UniProt Q6P2H3)
T1 sequence: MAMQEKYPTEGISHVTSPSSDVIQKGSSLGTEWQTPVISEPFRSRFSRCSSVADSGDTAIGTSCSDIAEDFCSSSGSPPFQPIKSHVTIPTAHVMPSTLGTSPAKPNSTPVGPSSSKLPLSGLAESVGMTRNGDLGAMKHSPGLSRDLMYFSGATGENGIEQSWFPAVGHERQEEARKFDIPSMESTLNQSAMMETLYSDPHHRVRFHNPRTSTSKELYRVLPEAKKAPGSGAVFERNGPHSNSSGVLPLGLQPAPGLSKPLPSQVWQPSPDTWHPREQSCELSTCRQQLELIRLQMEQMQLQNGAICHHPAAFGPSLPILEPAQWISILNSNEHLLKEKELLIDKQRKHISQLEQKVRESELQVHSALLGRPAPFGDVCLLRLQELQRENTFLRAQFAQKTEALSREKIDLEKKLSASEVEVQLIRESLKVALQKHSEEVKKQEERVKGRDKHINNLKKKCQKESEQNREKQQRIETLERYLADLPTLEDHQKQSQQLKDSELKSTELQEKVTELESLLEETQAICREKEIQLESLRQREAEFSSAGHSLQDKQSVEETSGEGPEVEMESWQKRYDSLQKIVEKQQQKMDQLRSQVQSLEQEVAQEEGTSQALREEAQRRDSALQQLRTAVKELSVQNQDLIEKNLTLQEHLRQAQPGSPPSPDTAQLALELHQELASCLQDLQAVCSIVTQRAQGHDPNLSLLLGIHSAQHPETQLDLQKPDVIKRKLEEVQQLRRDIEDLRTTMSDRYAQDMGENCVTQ
Assay: microtubule re-routing assay (recruitment to microtubules, fluorescence microscopy); U-2 OS STIL CRISPR KO cells co-transfected with GFP-STIL and MAP7-mCherry-CEP85 (WT and mutants) for 24 h; CEP85 held on microtubules by MAP7 17-282

- binding: binds
B1: 3xStrep-GFP-tagged STIL (protein, UniProt Q15468 1-1287)
chain: MEPIYPFARPQMNTRFPSSRMVPFHFPPSKCALWNPTPTGDFIYLHLSYYRNPKLVVTEKTIRLAYRHAKQNKKNSSCFLLGSLTADEDEEGVTLTVDRFDPGREVPECLEITPTASLPGDFLIPCKVHTQELCSREMIVHSVDDFSSALKALQCHICSKDSLDCGKLLSLRVHITSRESLDSVEFDLHWAAVTLANNFKCTPVKPIPIIPTALARNLSSNLNISQVQGTYKYGYLTMDETRKLLLLLESDPKVYSLPLVGIWLSGITHIYSPQVWACCLRYIFNSSVQERVFSESGNFIIVLYSMTHKEPEFYECFPCDGKIPDFRFQLLTSKETLHLFKNVEPPDKNPIRCELSAESQNAETEFFSKASKNFSIKRSSQKLSSGKMPIHDHDSGVEDEDFSPRPIPSPHPVSQKISKIQPSVPELSLVLDGNFIESNPLPTPLEMVNNENPPLINHLEHLKPLQPQLYDEKHSPEVEAGEPSLRGIPNQLNQDKPALLRHCKVRQPPAYKKGNPHTRNSIKPSSHNGPSHDIFEKLQTVSAGNVQNEEYPIRPSTLNSRQSSLAPQSQPHDFVFSPHNSGRPMELQIPTPPLPSYCSTNVCRCCQHHSHIQYSPLNSWQGANTVGSIQDVQSEALQKHSLFHPSGCPALYCNAFCSSSSPIALRPQGDMGSCSPHSNIEPSPVARPPSHMDLCNPQPCTVCMHTPKTESDNGMMGLSPDAYRFLTEQDRQLRLLQAQIQRLLEAQSLMPCSPKTTAVEDTVQAGRQMELVSVEAQSSPGLHMRKGVSIAVSTGASLFWNAAGEDQEPDSQMKQDDTKISSEDMNFSVDINNEVTSLPGSASSLKAVDIPSFEESNIAVEEEFNQPLSVSNSSLVVRKEPDVPVFFPSGQLAESVSMCLQTGPTGGASNNSETSEEPKIEHVMQPLLHQPSDNQKIYQDLLGQVNHLLNSSSKETEQPSTKAVIISHECTRTQNVYHTKKKTHHSRLVDKDCVLNATLKQLRSLGVKIDSPTKVKKNAHNVDHASVLACISPEAVISGLNCMSFANVGMSGLSPNGVDLSMEANAIALKYLNENQLSQLSVTRSNQNNCDPFSLLHINTDRSTVGLSLISPNNMSFATKKYMKRYGLLQSSDNSEDEEEPPDNADSKSEYLLNQNLRSIPEQLGGQKEPSKNDHEIINCSNCESVGTNADTPVLRNITNEVLQTKAKQQLTEKPAFLVKNLKPSPAVNLRTGKAEFTQHPEKENEGDITIFPESLQPSETLKQMNSMNSVGTFLDVKRLRQLPKLF
